In assay [1] the target is T1, Isu1-GST fusion protein (S. cerevisiae) (UniProt Q03020).
T1 sequence: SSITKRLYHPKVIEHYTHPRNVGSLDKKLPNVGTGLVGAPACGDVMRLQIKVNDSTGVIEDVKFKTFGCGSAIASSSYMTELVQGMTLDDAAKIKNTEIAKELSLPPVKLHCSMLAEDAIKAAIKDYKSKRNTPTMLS
The experiment in a line: pull-down; Isu1-GST (30 μM) incubated with increasing Ssq1, 4 mM ATP, PD buffer, 15 min at 25 °C, then glutathione resin; SDS-PAGE, Coomassie, densitometry; both purified.

Assay [2] concerns the target T1, Isu1-GST fusion protein (S. cerevisiae). Nature of the assay: pull-down; Isu1-GST (2.5 μM) with Ssq1 (4 μM), 4 mM ATP and increasing Hsc20 (0.0025-0.25 μM), PD buffer, 15 min at 25 °C, then glutathione resin; bound Ssq1 by densitometry; both purified.

Results are given in words; binding and its absence hold for the method and conditions named. Binding can be weak; no strength is given. Tags and fused reporters may be left off the sequences shown.

Data on one substance can be found in PMC7247549, “Biochemical Convergence of Mitochondrial Hsp70 System Specialized in Iron–Sulfur Cluster Biogenesis” (International Journal of Molecular Sciences, 2020).

Ssq1 (S. cerevisiae): the binding result in assay [1] and in assay [2] was “binds” in each case.
